# From the supplement of paper PMC7858590
# Values joined by “and” are separate entries in the source; they are usually repeats but may differ in a detail not shown here. Equal values may be shown once. ± gives the standard deviation of the averaged measurements. The list shows a part of the results. This data set is noisy: repeats of one test often differ as much as different tests do.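 Macrophages came from blood monocytes pooled from four healthy donors and grown with M-CSF; these M1-like cells were treated with compounds that had pushed resting macrophages toward the M2-like state in a first-round screen. The Z-score is a t-test comparing cell eccentricity (about 1000 cells per well) with same-row DMSO wells; a compound counts as reprogramming when it passes the M2 cutoff of +6 set by standard cytokine controls (the M1 cutoff is −4).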
# Test system: human monocyte-derived macrophages (polarized)
# Test: cell shape (eccentricity) Z-score vs DMSO control; macrophage state: M1-polarized (IFNg + TNFa), cytokines removed before treatment; higher = more elongated, M2-like morphology
# Conditions: 24 h
Structure (SMILES),cell shape (Z-score) (5 µM),cell shape (Z-score) (10 µM)
CC1(C)C[C@@H]1C(=O)N/C(=C\CCCCSC[C@H](N)C(=O)O)C(=O)O,0.938 ± 5.7,-5.72 ± 4
O=C1Cc2c([nH]c3ccc([N+](=O)[O-])cc23)-c2ccccc2N1,-3.97 ± 0.04,0.19 ± 1.9
O=C(NCCN1CCCCC1)c1ccc(I)cc1,0.9 ± 1.9,3.13 ± 0.052
CC(C)(C)c1cc(C(=O)/C=C/c2ccc(C(=O)O)cc2)cc(C(C)(C)C)c1,-1.07 ± 2.1,-7.11 ± 4.6
CN(C)CCC=C1c2ccccc2COc2ccccc21,-0.844 ± 5.8,-1.11 ± 3.1
Cn1c([N+](=O)[O-])cnc1COC(N)=O,-0.474 ± 3.6,-0.073 ± 1.8
C=C1CC[C@@H]2[C@](C)(CO[C@@H]3O[C@H](CO)[C@@H](O)[C@H](O)[C@H]3O)CCC[C@@]2(C)[C@@H]1CCC1=CCOC1=O,-0.596 ± 1.5,0.607 ± 3.2
CC1=CC(=O)CC2C1(C)CCC(C)C2(C)CC/C(C)=C\C(=O)O (centres undefined),-6.76 ± 5.6,1.83 ± 4.3
C(=N\NC1=NCCN1)/c1c2ccccc2c(/C=N/NC2=NCCN2)c2ccccc12,11.6,10.7 ± 2.7
CC(C)n1cnc2c(NCc3ccccc3)nc(NCCO)nc21,1.42 ± 8,-1.66 ± 5.3
Cn1cncc1[C@@](N)(c1ccc(Cl)cc1)c1ccc2c(c1)c(-c1cccc(Cl)c1)cc(=O)n2C,0.662 ± 0.2,1.41 ± 4.6
Cn1c2ccccc2c2c3c(c4c5ccccc5n(CCC#N)c4c21)CNC3=O,2.8 ± 2.1,1.31 ± 0.5
Cc1cc(O)cc(=O)o1,0.185 ± 1.4,-6.58 ± 6.3
Cc1cc(Nc2cc(N3CCN(C)CC3)nc(Sc3ccc(NC(=O)C4CC4)cc3)n2)n[nH]1,–,3.75 and 5.81 and 5.13
C=CCn1c(=O)c2cnc(Nc3ccc(N4CCN(C)CC4)cc3)nc2n1-c1cccc(C(C)(C)O)n1,-1.65 ± 1.5,2.8 ± 4.5
NC(N)=NCCNS(=O)(=O)c1cccc2cnccc12,-0.298 ± 5.5,1.37 ± 3.3
CCC1(C)CC(=O)NC1=O (centres undefined),-1.52 ± 5.1,-0.54 ± 4.2
O=C(CCCCCCC(=O)Nc1ccccc1)NO,0.215 ± 0.12,-2.57 ± 4.3
COc1cc(-c2ccc(=O)[nH]n2)ccc1OC(F)F,3.52 ± 10,-0.168 ± 7.4
Oc1cccc(-c2nc(N3CCOCC3)c3oc4ncccc4c3n2)c1,-0.734 ± 3.4,-3.69 ± 2.3
C[C@H](CO)N1C[C@H](C)[C@H](CN(C)C(=O)Nc2cc(F)ccc2F)Oc2cc(C#CC3CCCC3)ccc2S1(=O)=O,-4.22 ± 8.2,-7.92 ± 10
Cc1nc(Nc2ncc(C(=O)Nc3c(C)cccc3Cl)s2)cc(N2CCN(CCO)CC2)n1,3.92,8.02 ± 0.7
COc1ccc(-c2cc(=O)c3c(O)cc(O)cc3o2)cc1O,-11.3 ± 10,-0.0502 ± 3.3
CC1(C)CC[C@]2(C(=O)O)CC[C@]3(C)C(=CCC4[C@@]5(C)CC[C@@H](O)C(C)(C)C5CC[C@]43C)C2C1 (some centres undefined),-4.32 ± 6.6,1.51 ± 1.7
CC(N)C(=O)OC(C)(C)Cc1ccc(Cl)cc1 (centres undefined),-3.12 ± 3.4,3.67 ± 12
CCC[C@H](N[C@@H](C)C(=O)N1[C@H](C(=O)O)C[C@@H]2CCCC[C@@H]21)C(=O)OCC,-1.36 ± 3.3,0.115 ± 4.6
CCCCCCOc1ccccc1C(N)=O,2.23 ± 6,-2.45 ± 5.9

Structure (SMILES),cell shape (Z-score) (5 µM),cell shape (Z-score) (10 µM)
CN(C)CC[C@H](CSc1ccccc1)Nc1ccc(S(=O)(=O)NC(=O)c2ccc(N3CCN(Cc4ccccc4-c4ccc(Cl)cc4)CC3)cc2)cc1[N+](=O)[O-],-0.605 ± 0.048,4.71 ± 2.9
COc1cc2ncnc(Nc3ccc(F)c(Cl)c3)c2cc1OCCCN1CCOCC1,0.996 ± 1.8,-5.18 ± 2.3
C#C[C@]1(O)CC[C@H]2[C@@H]3CCC4=Cc5oncc5C[C@]4(C)[C@H]3CC[C@@]21C,0.587 ± 1.9,4.39 ± 3
COc1cc(Nc2ncc(F)c(Nc3ccc4c(n3)NC(=O)C(C)(C)O4)n2)cc(OC)c1OC,3.5 ± 9.6,1 ± 4.6
COc1cc2ncn(-c3cc(OCc4ccccc4C(F)(F)F)c(C(N)=O)s3)c2cc1OC,6.31 ± 3.1,11.5 ± 6.9
C[C@@H](N)[C@H]1CC[C@H](C(=O)Nc2ccncc2)CC1,8.34,9.51
Cc1ccc(S(=O)(=O)OCC(=O)Nc2ccc(C(=O)O)c(O)c2)cc1,3.57 ± 11,3.87 ± 8.3
COc1cccc(NC(=O)/C=C/c2ccc(Cl)cc2)c1,0.803 ± 1.7,1.65 ± 1.3
Nc1ncnc2n[nH]c(Nc3ccc(F)cc3)c12,0.777 ± 0.22,1.27 ± 0.84
CN1CCN(CCOc2cc(OC3CCOCC3)c3c(Nc4c(Cl)ccc5c4OCO5)ncnc3c2)CC1,2.1 ± 1.4,3.08 ± 1.4
Nc1nc(N)c2nc(-c3cccc(O)c3)c(-c3cccc(O)c3)nc2n1,-0.796 ± 2.9,-0.169 ± 5.1
CC[C@@H]1C(=O)N(C)c2cnc(Nc3ccc(C(=O)NC4CCN(C)CC4)cc3OC)nc2N1C1CCCC1,9.88,10.9
CC1C(=O)C(=O)[C@@H]2O[C@@H]2C1=O (some centres undefined),-0.105 ± 2.1,-2.64 ± 2.1
CC1(CCOC2OC(CO)C(O)C(O)C2O)CCC2C(=CCC3C(C)(C(=O)O)CCCC23C)C1 (centres undefined),-0.103 ± 3.3,3.5 ± 4.7
c1ccc(-c2[nH]ncc2-c2ccnc3ccccc23)nc1,3.91 ± 1.6,2.89 ± 0.88
CNC(=O)c1ccccc1Sc1ccc2c(/C=C/c3ccccn3)n[nH]c2c1,9.86 and 6.43,12.6 and 6.21
Oc1cccc(O)c1,2.84 ± 5.3,1.7 ± 3.4
C=CC(=O)N1CCC[C@@H](n2nc(-c3ccc(Oc4ccccc4)cc3)c3c(N)ncnc32)C1,6.79 ± 3.9,4.39 ± 2.2
COC(=O)C(CCCN=C(N)N)NC(=O)CCCc1c(-c2ccccc2)[nH]c2c(F)cc(F)cc12 (centres undefined),-1.74 ± 4.9,-1.34 ± 3.3
CC(C)(C)c1nc(-c2cccc(NS(=O)(=O)c3c(F)cccc3F)c2F)c(-c2ccnc(N)n2)s1,-2.82 ± 4.9,-4.2 ± 6
COc1c(OC)c2occc2c2oc(=O)ccc12,1.95 ± 0.061,1.3 ± 0.55
NC(=O)Nc1sc(-c2ccc(F)cc2)cc1C(N)=O,-4.42 ± 2.8,-5.64 ± 6
CO[C@H]1C[C@H](O[C@@H]2/C(C)=C/C[C@@H]3C[C@@H](C[C@]4(CC[C@H](C)[C@@H](C5CCCCC5)O4)O3)OC(=O)[C@@H]3C=C(C)/C(=N/O)[C@H]4OC/C(=C\C=C\[C@@H]2C)[C@]43O)O[C@@H](C)[C@@H]1O,1.74 ± 2.8,7.86
CC[C@H]1OC(=O)[C@H](C)[C@@H](O[C@H]2C[C@@](C)(OC)[C@@H](O)[C@H](C)O2)[C@H](C)[C@@H](O[C@@H]2O[C@H](C)C[C@H](N(C)C)[C@H]2O)[C@](C)(O)C[C@@H](C)C(=O)[C@H](C)[C@@H](O)[C@]1(C)O,0.289 ± 3.6,0.558 ± 0.073
CCCC(=O)Nc1ncnc2c1ncn2[C@@H]1O[C@@H]2COP(=O)(O)O[C@H]2[C@H]1OC(=O)CCC,-2.43 ± 3.8,-9.02 ± 6.3
CC(C)CNc1ccnc(NCc2csc(-c3ccccc3)n2)n1,1.68 ± 6.4,-2.84 ± 2.9
Nc1nc2c(ncn2COCCO)c(=O)[nH]1,-1.44 ± 1.1,4.43 ± 8.4

# Arranged by molecular weight (ascending): some entries from above
Structure (SMILES),cell shape (Z-score) (5 µM),cell shape (Z-score) (10 µM)
COc1c(OC)c2occc2c2oc(=O)ccc12,1.95 ± 0.061,1.3 ± 0.55
CC(C)CNc1ccnc(NCc2csc(-c3ccccc3)n2)n1,1.68 ± 6.4,-2.84 ± 2.9
Nc1nc(N)c2nc(-c3cccc(O)c3)c(-c3cccc(O)c3)nc2n1,-0.796 ± 2.9,-0.169 ± 5.1

# Continuation:

Structure (SMILES),cell shape (Z-score) (5 µM),cell shape (Z-score) (10 µM)
CCc1cnn2c(NCc3ccc[n+]([O-])c3)cc(N3CCCC[C@H]3CCO)nc12,-1.56 ± 6,-5.36 ± 7.2
CC(NCCC(c1ccccc1)c1ccccc1)c1ccccc1 (centres undefined),2.18 ± 7,-4.72 ± 5.3
C#Cc1cccc(Nc2ncnc3cc(OCCOC)c(OCCOC)cc23)c1,-0.865 ± 1.9,-2.64 ± 5.5
CC(C)(C)OC(=O)Nc1ccc(-c2cc(C(=O)NCCCCCCC(=O)NO)no2)cc1,0.289 ± 0.49,-1.64 ± 2.6
CC[C@]12CCCN3CCc4c(n(c5ccccc45)[C@@](O)(C(=O)OC)C1)[C@@H]32,0.649 ± 3.7,-0.729 ± 3.2
N[C@@H](CC(=O)N1CCn2c(nnc2C(F)(F)F)C1)Cc1cc(F)c(F)cc1F,2.4 ± 4.4,1.27 ± 7.8
O=C(O)c1ccc2c(c1)nc(Nc1cccc(Cl)c1)c1ccncc12,2.83 ± 3.9,3.03 ± 6
CCCCOC(=O)c1ccc(N)cc1,0.209 ± 3.2,-0.923 ± 4.8
CC[C@]1(O)C[C@@H]2CN(CCc3c([nH]c4ccccc34)[C@@](C(=O)OC)(c3cc4c(cc3OC)N(C)[C@H]3[C@@](O)(C(=O)OC)[C@H](OC(C)=O)[C@]5(CC)C=CCN6CC[C@]43[C@@H]65)C2)C1,0.382 ± 2.1,-0.0313 ± 0.45
C[C@]1(CO)CN(c2cc(C(=O)Nc3ccc4c(c3)-c3c(c(C(N)=O)nn3-c3ccc(F)cc3)CC4)c(Cl)cn2)C[C@@]1(C)CO,-5.96 ± 2.9,-8.14 ± 0.75
NC(=O)Nc1cc(-c2cccc(F)c2)sc1C(=O)N[C@H]1CCCNC1,0.624 ± 0.57,6.78 ± 4.4
O=C(OC1C=C(CO)C2C(OC3OC(CO)C(O)C(O)C3O)OC=CC12O)c1ccc(O)cc1 (centres undefined),1.02 ± 0.79,1.05 ± 0.75
CC(C(=O)Nc1cccc(/N=C/c2c(O)ccc3ccccc23)c1)c1ccccc1 (centres undefined),-2.06 ± 3.7,1.8 ± 6.6
COCc1c(C(C)C)nc(C(C)C)c(/C=C/[C@@H](O)C[C@@H](O)CC(=O)O)c1-c1ccc(F)cc1,0.161 ± 6,5.33 ± 0.19
CCCCCc1c2c(cc(O)c1C(=O)O)OC(=O)c1c(cc(OC)cc1C(=O)CCCC)O2,-0.984 ± 2.9,-3.58 ± 6.4
O=c1cc(-c2ccc(O)cc2)oc2cc(O)ccc12,3.84,6.39 ± 2.5
CC[C@H](Nc1ncnc2[nH]cnc12)c1nc2cccc(F)c2c(=O)n1-c1ccccc1,-0.284 ± 7.8,-0.758 ± 8.8
COc1ccc(N(C(=O)c2ccccc2)S(=O)(=O)c2cc(OC)ccc2OC)cc1,-2.29 ± 1.1,2.03 ± 3.9
[O-][NH2+]c1ccc(O)c2ncccc12,-1.96 ± 3,0.00797 ± 0.46
Cc1onc(-c2ccccc2)c1-c1ccc(S(N)(=O)=O)cc1,2.54 ± 1.5,-1.11 ± 5.8
C=C[C@@]1(C)CC(=O)[C@]2(O)[C@@]3(C)[C@@H](O)CCC(C)(C)[C@@H]3[C@H](O)[C@H](OC(C)=O)[C@@]2(C)O1,-2.08 ± 6.7,-9.07 ± 4.7
COc1cc2c(Oc3ccc4[nH]c(C)cc4c3F)ncnc2cc1OCCCN1CCCC1,-4.25 ± 6.9,-5.03 ± 6
CCN(CC)C(=S)SSC(=S)N(CC)CC,-0.518 ± 3.6,-4.11 ± 0.88
CC1=C(/C=C/C(C)=C/C=C/C(C)=C/C(=O)O)C(C)(C)CCC1,-0.682 ± 3.4,-1.2 ± 2.6
CCN(CC)CCOc1ccc2c(c1)C(=O)c1cc(OCCN(CC)CC)ccc1-2,-1.87 ± 2.9,-4.24 ± 3.8
CC1(C)CCC(c2ccc(Cl)cc2)=C(CN2CCN(c3ccc(C(=O)NS(=O)(=O)c4ccc(N[C@H](CCN5CCOCC5)CSc5ccccc5)c(S(=O)(=O)C(F)(F)F)c4)cc3)CC2)C1,1.88 ± 0.2,0.418 ± 1.1

# Laid out differently: 2 of the compounds above
Structure (SMILES)	cell shape (Z-score) (5 µM)	cell shape (Z-score) (10 µM)
CC(C(=O)Nc1cccc(/N=C/c2c(O)ccc3ccccc23)c1)c1ccccc1 (centres undefined)	-2.06 ± 3.7	1.8 ± 6.6
COCc1c(C(C)C)nc(C(C)C)c(/C=C/[C@@H](O)C[C@@H](O)CC(=O)O)c1-c1ccc(F)cc1	0.161 ± 6	5.33 ± 0.19
